The values below come from patent publication US9487500B2, “Compounds and compositions thereof” (Inhibikase Therapeutics, Inc., priority 2012, dated 2016).

What is called EC50 is the concentration at which the effect is half-maximal.

The test system of the test is VEE virus. The test is described as follows: microbe, parasite or virus in culture. To be noted: Alphavirus, read-out: EC50 (micromolar).

Turning to `Cc1ccc(NC(=O)c2ccc(CN3CCN(C)CC3)cc2)cc1Nc1nccc(-c2cccnc2)n1` [imatinib, 4-[(4-methylpiperazin-1-yl)methyl]-N-(4-methyl-3-{[4-(pyridin-3-yl)pyrimidin-2-yl]amino}phenyl)benzamide, reference compound], the EC50 came to 6 µM.
